Experimental data: patent publication US20170202782A1 (Abraxis BioScience, LLC, priority 2014, published 2017)
At least one compound was matched to its structure with a doubt left.

Test system: human pancreatic carcinoma MiaPACA2 xenograft tumors
Experiment: CIVO arrayed microinjection into xenografted MiaPACA2 tumors, immunofluorescence (CC3, pHH3)

SMILES: CC1(C)CCC(c2ccc(Cl)cc2)=C(CN2CCN(c3ccc(C(=O)NS(=O)(=O)c4ccc(N[C@H](CCN5CCOCC5)CSc5ccccc5)c(S(=O)(=O)C(F)(F)F)c4)cc3)CC2)C1 [ABT-263]
- effect on the durability of nab-paclitaxel-induced mitotic arrest (pHH3) (24 and 48 hours after injection (FIGS. 4A, 4B)): does not have a detectable effect
- CC3 positive cells at the site of injection (24 hours, diminished with increasing radial distance (FIG. 2)): increase
